What all share (test): SEC; analytical Superdex 75 10/300 GL, purified protein loaded at 500 μM; calibrated with BSA, ovalbumin, ribonuclease A and aprotinin; check of the monomeric state; both purified
In assay [1] the target is T1, Sac7d (Sulfolobus acidocaldarius) (UniProt P13123).
T1 sequence: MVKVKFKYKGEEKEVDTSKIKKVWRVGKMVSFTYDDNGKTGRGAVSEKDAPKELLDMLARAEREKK

For assay [2], the target named is Mse7 (Metallosphaera sedula) (UniProt A4YEA2).
The target in assay [3] is Mcu7 (Metallosphaera cuprina) (UniProt F4FYY6).
Assay [4] has as its target Sis7a (Sulfolobus islandicus) (UniProt D2PHL8).
The target in assay [5] is T2, Ssh7a (Sulfolobus shibatae) (UniProt P61990).
T2 sequence: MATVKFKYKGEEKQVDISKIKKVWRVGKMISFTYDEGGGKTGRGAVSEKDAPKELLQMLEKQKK

Assay [6] concerns the target T3, Sso7d (Sulfolobus solfataricus) (UniProt P39476).
T3 sequence: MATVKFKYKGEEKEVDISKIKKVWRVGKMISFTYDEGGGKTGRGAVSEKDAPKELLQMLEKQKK

Assay [7] concerns the target Sis7b (Sulfolobus islandicus) (UniProt F0NJT3).
Assay [8] concerns the target T4, Ssh7b (Sulfolobus shibatae) (UniProt O59632).
T4 sequence: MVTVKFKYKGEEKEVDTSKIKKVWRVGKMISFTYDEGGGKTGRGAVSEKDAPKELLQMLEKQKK

Assay [9] addresses T5, Sac7e (Sulfolobus acidocaldarius) (UniProt P13125).
T5 sequence: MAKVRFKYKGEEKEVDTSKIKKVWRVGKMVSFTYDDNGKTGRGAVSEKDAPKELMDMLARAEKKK

For assay [10], the target named is T6, Aho7b (Acidianus hospitalis) (UniProt F4B9I5).
T6 sequence: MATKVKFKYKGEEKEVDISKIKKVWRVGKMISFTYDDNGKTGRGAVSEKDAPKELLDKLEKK

The target in assay [11] is Sto7 (Sulfolobus tokodaii) (UniProt Q96X56).

No constants are given. Whether binding was seen depends on the method and setting.

This is an account of results in publication PMC5112516.

B1: Sac7d (protein, UniProt P13123 1-66)
chain: MVKVKFKYKGEEKEVDTSKIKKVWRVGKMVSFTYDDNGKTGRGAVSEKDAPKELLDMLARAEREKKLN
Consider B1, for which, in [1], the binding entry is reported as “no binding (tested: 500 μM)”.

B2: Mse7 (protein, UniProt A4YEA2 1-62)
chain: MATKIKFKYKGQDLEVDISKVKKVWKVGKMVSFTYDDNGKTGRGAVSEKDAPKELLNMIGKKLN
B2: the binding entry in assay [2] was “no binding (tested: 500 μM)”.

B3: Mcu7 (protein, UniProt F4FYY6 1-62)
chain: MATKIKFKYKGQDLEVDISKVKKVWKVGKMVSFTYDDNGKTGRGAVSEKDAPKELLSMIGKKLN
Take B3: the binding result in [3] is “no binding (tested: 500 μM)”.

B4: Sis7a (protein, UniProt D2PHL8 1-64)
chain: MTTVKFKYKGEEKQVDISKIKKVWRVGKMISFTYDEGGGKTGRGAVSEKDAPKELLQMLEKQKKLN
Turning to B4, the binding result in [4] is “no binding (tested: 500 μM)”.

B5: Ssh7a (protein, UniProt P61990 1-64)
chain: MATVKFKYKGEEKQVDISKIKKVWRVGKMISFTYDEGGGKTGRGAVSEKDAPKELLQMLEKQKKLN
For B5, the binding result in assay [5] is “no binding (tested: 500 μM)”.

B6: Sso7d (protein, UniProt P39476 1-64)
chain: MATVKFKYKGEEKEVDISKIKKVWRVGKMISFTYDEGGGKTGRGAVSEKDAPKELLQMLEKQKKLN
On to B6, for which the binding entry in assay [6] is “no binding (tested: 500 μM)”.

B7: Sis7b (protein, UniProt F0NJT3 1-64)
chain: MTTVKFKYKGEEKQVDTSKIKKVWRVGKMISFTYDEGGGKTGRGAVSEKDAPKELLQMLEKQKKLN
For B7, in assay [7], the binding entry is given as “no binding (tested: 500 μM)”.

B8: Ssh7b (protein, UniProt O59632 1-64)
chain: MVTVKFKYKGEEKEVDTSKIKKVWRVGKMISFTYDEGGGKTGRGAVSEKDAPKELLQMLEKQKKLN
Regarding B8, the binding entry in [8] is listed as “no binding (tested: 500 μM)”.

B9: Sac7e (protein, UniProt P13125 1-65)
chain: MAKVRFKYKGEEKEVDTSKIKKVWRVGKMVSFTYDDNGKTGRGAVSEKDAPKELMDMLARAEKKKLN
Take B9: the binding entry in assay [9] is recorded as “no binding (tested: 500 μM)”.

B10: Aho7b (protein, UniProt F4B9I5 1-62)
chain: MATKVKFKYKGEEKEVDISKIKKVWRVGKMISFTYDDNGKTGRGAVSEKDAPKELLDKLEKKLN
For the molecule B10, in assay [10], the binding entry is listed as “no binding (tested: 500 μM)”.

B11: Sto7 (protein, UniProt Q96X56 1-64)
chain: MVTVKFKYKGEEKEVDISKIKKVWRVGKMISFTYDDNGKTGRGAVSEKDAPKELLQMLEKSGKKLN
Consider B11, for which the binding entry in assay [11] is recorded as “no binding (tested: 500 μM)”.
